Data: patent US8618097B2, “Pyrimidyl cyclopentanes as AKT protein kinase inhibitors” (Array Biopharma, Inc., priority 2007, dated 2013)
Some of these results come from one statement about several compounds together.

Protein sequences, listed by entry. Tags and fused reporters are not part of them. Lines headed by an entry give the natural chain unless they say otherwise; changes in a name come on top.
UniProt P31749: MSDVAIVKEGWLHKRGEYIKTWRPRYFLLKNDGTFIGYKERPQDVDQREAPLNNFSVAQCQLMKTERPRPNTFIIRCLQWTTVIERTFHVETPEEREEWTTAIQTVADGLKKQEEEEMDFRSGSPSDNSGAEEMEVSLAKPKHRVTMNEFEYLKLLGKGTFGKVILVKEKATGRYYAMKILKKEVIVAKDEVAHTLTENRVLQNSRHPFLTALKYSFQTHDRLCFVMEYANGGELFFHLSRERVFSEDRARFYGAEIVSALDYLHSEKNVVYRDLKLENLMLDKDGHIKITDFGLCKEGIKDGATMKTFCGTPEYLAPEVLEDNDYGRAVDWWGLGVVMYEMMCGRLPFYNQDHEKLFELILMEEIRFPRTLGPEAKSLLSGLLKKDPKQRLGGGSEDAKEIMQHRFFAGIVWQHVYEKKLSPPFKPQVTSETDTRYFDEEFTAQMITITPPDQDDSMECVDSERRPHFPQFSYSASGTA

Molecular target: full-length human recombinant active AKT-1 (Homo sapiens, UniProt P31749)
Assay: AKT-1 Kinase Assay (IMAP fluorescence polarization)
Format: biochemical
Details: phosphorylation of fluorescently-labeled peptide (Crosstide) by AKT-1, fluorescent polarization, IMAP kit

| Compound | IC50 [nM] |
| --- | --- |
| C[C@@H]1C[C@H](F)c2ncnc(N3CCN(C(=O)[C@@H](c4ccc(Br)cc4)[C@@H]4CCC(C)(C)N4)CC3)c21 [Example 65, (S)-2-(4-bromophenyl)-2-((S)-5,5-dimethylpyrrolidin-2-yl)-1-(4-((5R,7S)-7-fluoro-5-methyl-6,7-dihydro-5H-cyclopenta[d]pyrimidin-4-yl)piperazin-1-yl)ethanone] | < 1000 |
| C[C@@H]1CC(F)(F)c2ncnc(N3CCN(C(=O)[C@@H](c4ccc(Br)cc4)[C@@H]4CCC(C)(C)N4)CC3)c21 [Example 66, (S)-2-(4-bromophenyl)-1-(4-((R)-7,7-difluoro-5-methyl-6,7-dihydro-5H-cyclopenta[d]pyrimidin-4-yl)piperazin-1-yl)-2-((S)-5,5-dimethylpyrrolidin-2-yl)ethanone] | < 1000 |
| C[C@@H]1CC(F)(F)c2ncnc(N3CCN(C(=O)[C@@H](c4ccc(C(F)(F)F)cc4F)[C@@H]4CCC(C)(C)N4)CC3)c21 [Example 67, (S)-1-(4-((R)-7,7-difluoro-5-methyl-6,7-dihydro-5H-cyclopenta[d]pyrimidin-4-yl)piperazin-1-yl)-2-((S)-5,5-dimethylpyrrolidin-2-yl)-2-(2-fluoro-4-(trifluoromethyl)phenyl)ethanone] | < 1000 |
| C[C@@H]1CC(F)(F)c2ncnc(N3CCN(C(=O)[C@H](c4ccc(C(F)(F)F)cc4)[C@@H]4CCC(C)(C)N4)CC3)c21 [Example 68, (R)-1-(4-((R)-7,7-difluoro-5-methyl-6,7-dihydro-5H-cyclopenta[d]pyrimidin-4-yl)piperazin-1-yl)-2-((S)-5,5-dimethylpyrrolidin-2-yl)-2-(4-(trifluoromethyl)phenyl)ethanone] | < 1000 |
| C[C@@H]1C[C@H](F)c2ncnc(N3CCN(C(=O)[C@H](c4ccc(C(F)(F)F)cc4F)[C@@H]4CCC(C)(C)N4)CC3)c21 [Example 69, (R)-2-((S)-5,5-dimethylpyrrolidin-2-yl)-2-(2-fluoro-4-(trifluoromethyl)phenyl)-1-(4-((5R,7S)-7-fluoro-5-methyl-6,7-dihydro-5H-cyclopenta[d]pyrimidin-4-yl)piperazin-1-yl)ethanone] | < 1000 |
| C[C@@H]1C[C@H](F)c2ncnc(N3CCN(C(=O)[C@@H](c4ccc(C(F)(F)F)cc4)[C@@H]4CCC(C)(C)N4)CC3)c21 [Example 70, (S)-2-((S)-5,5-dimethylpyrrolidin-2-yl)-1-(4-((5R,7S)-7-fluoro-5-methyl-6,7-dihydro-5H-cyclopenta[d]pyrimidin-4-yl)piperazin-1-yl)-2-(4-(trifIuoromethyl)phenyl)ethanone] | < 1000 |
| C[C@@H]1C[C@@H](O)c2ncnc(N3CCN(C(=O)[C@@H](c4ccc(C#N)cc4)[C@@H]4CCC(C)(C)N4)CC3)c21 [Example 71, 4-((S)-1-((S)-5,5-dimethylpyrrolidin-2-yl)-2-(4-((5R,7R)-7-hydroxy-5-methyl-6,7-dihydro-5H-cyclopenta[d]pyrimidin-4-yl)piperazin-1-yl)-2-oxoethyl)benzonitrile] | < 1000 |
| CC1(C)CC[C@@H]([C@@H](C(=O)N2CCN(c3ncnc4c3[C@H](CO)CC4)CC2)c2ccc(Cl)cc2)N1 [Example 72, (S)-2-(4-chlorophenyl)-2-((S)-5,5-dimethylpyrrolidin-2-yl)-1-(4-((R)-5-(hydroxymethyl)-6,7-dihydro-5H-cyclopenta[d]pyrimidin-4-yl)piperazin-1-yl)ethanone] | < 1000 |
| CO[C@@H]1C[C@@H](C)c2c1ncnc2N1CCN(C(=O)[C@@H](c2ccc(C(F)(F)F)cc2)[C@@H]2CCCN2C)CC1 [Example 73, (S)-1-(4-((5R,7R)-7-methoxy-5-methyl-6,7-dihydro-5H-cyclopenta[d]pyrimidin-4-yl)piperazin-1-yl)-2-((S)-1-methylpyrrolidin-2-yl)-2-(4-(trifluoromethyl)phenyl)ethanone] | < 1000 |
| C[C@@H]1C[C@@H](O)c2ncnc(N3CCN(C(=O)[C@@H](c4ccc(C(F)(F)F)cc4)[C@@H]4CCCN4)CC3)c21 [Example 74, (S)-1-(4-((5R,7R)-7-hydroxy-5-methyl-6,7-dihydro-5H-cyclopenta[d]pyrimidin-4-yl)piperazin-1-yl)-2-((S)-pyrrolidin-2-yl)-2-(4-(trifluoromethyl)phenyl) ethanone] | < 1000 |
| C[C@@H]1C[C@@H](O)c2ncnc(N3CCN(C(=O)[C@@H](c4ccc(C(F)(F)F)cc4)[C@@H]4CCCN4C)CC3)c21 [Example 75, (S)-1-(4-((5R,7R)-7-hydroxy-5-methyl-6,7-dihydro-5H-cyclopenta[d]pyrimidin-4-yl)piperazin-1-yl)-2-((S)-1-methylpyrrolidin-2-yl)-2-(4-(trifluoromethyl)phenyl)ethanone] | < 1000 |
| C[C@@H]1C[C@@H](O)c2ncnc(N3CCN(C(=O)[C@@H](c4ccc(C5CC5)cc4)[C@@H]4CCC(C)(C)N4)CC3)c21 [Example 76, (S)-2-(4-cyclopropylphenyl)-2-((S)-5,5-dimethylpyrrolidin-2-yl)-1-(4-((5R,7R)-7-hydroxy-5-methyl-6,7-dihydro-5H-cyclopenta[d]pyrimidin-4-yl)piperazin-1-yl)ethanone] | < 1000 |
| C[C@@H]1C[C@H](O)c2ncnc(N3CCN(C(=O)[C@@H](c4ccc(C5CC5)cc4)[C@@H]4CCC(C)(C)N4)CC3)c21 [Example 77, (S)-2-(4-cyclopropylphenyl)-2-((S)-5,5-dimethylpyrrolidin-2-yl)-1-(4-((5R,7S)-7-hydroxy-5-methyl-6,7-dihydro-5H-cyclopenta[d]pyrimidin-4-yl)piperazin-1-yl)ethanone] | < 1000 |
| C[C@@H]1CC(=O)c2ncnc(N3CCN(C(=O)[C@@H](c4ccc(Cl)cc4)[C@@H]4CCC(C)(C)N4)CC3)c21 [Example 78, (R)-4-(4-((S)-2-(4-chlorophenyl)-2-((S)-5,5-dimethylpyrrolidin-2-yl)acetyl)piperazin-1-yl)-5-methyl-5H-cyclopental[d]pyrimidin-7(6H)-one] | < 1000 |
| C[C@@H]1C[C@H](F)c2ncnc(N3CCN(C(=O)[C@@H](c4ccc(Cl)cc4)[C@@H]4CCC(C)(C)N4)CC3)c21 [Example 79, (S)-2-(4-chlorophenyl)-2-((S)-5,5-dimethylpyrrolidin-2-yl)-1-(4-((5R,7S)-7-fluoro-5-methyl-6,7-dihydro-5H-cyclopenta[d]pyrimidin-4-yl)piperazin-1-yl)ethanone] | < 1000 |
| C[C@@H]1C[C@H](F)c2ncnc(N3CCN(C(=O)[C@@H](c4ccc(Cl)c(F)c4)[C@@H]4CCCN4)CC3)c21 [Example 80, (S)-2-(4-chloro-3-fluorophenyl)-1-(4-((5R,7S)-7-fluoro-5-methyl-6,7-dihydro-5H-cyclopenta[d]pyrimidin-4-yl)piperazin-1-yl)-2-((S)-pyrrolidin-2-yl)ethanone] | < 1000 |
| C[C@@H]1C[C@@H](O)c2ncnc(N3CCN(C(=O)[C@@H](c4ccc(C(F)(F)F)c(F)c4)[C@@H]4CCC(C)(C)N4)CC3)c21 [Example 81, (S)-2-((S)-5,5-dimethylpyrrolidin-2-yl)-2-(3-fluoro-4-(trifluoromethyl)phenyl)-1-(4-((5R,7R)-7-hydroxy-5-methyl-6,7-dihydro-5H-cyclopenta[d]pyrimidin-4-yl)piperazin-1-yl)ethanone] | < 1000 |
| C[C@@H]1C[C@H](O)c2ncnc(N3CCN(C(=O)[C@@H](c4ccc(C(F)(F)F)c(F)c4)[C@@H]4CCC(C)(C)N4)CC3)c21 [Example 82, (S)-2-((S)-5,5-dimethylpyrrolidin-2-yl)-2-(3-fluoro-4-(trifluoromethyl)phenyl)-1-(4-((5R,7S)-7-hydroxy-5-methyl-6,7-dihydro-5H-cyclopenta[d]pyrimidin-4-yl)piperazin-1-yl)ethanone] | < 1000 |
| C[C@@H]1C[C@@H](O)c2ncnc(N3CCN(C(=O)[C@@H](c4ccc(Cl)c(F)c4)[C@@H]4CCC(C)(C)N4)CC3)c21 [Example 83, (S)-2-(4-chloro-3-fluorophenyl)-2-((S)-5,5-dimethylpyrrolidin-2-yl)-1-(4-((5R,7R)-7-hydroxy-5-methyl-6,7-dihydro-5H-cyclopenta[d]pyrimidin-4-yl)piperazin-1-yl)ethanone] | < 1000 |
| C[C@@H]1C[C@H](O)c2ncnc(N3CCN(C(=O)[C@@H](c4ccc(Cl)c(F)c4)[C@@H]4CCC(C)(C)N4)CC3)c21 [Example 84, (S)-2-(4-chloro-3-fluorophenyl)-2-((S)-5,5-dimethylpyrrolidin-2-yl)-1-(4-((5R,7S)-7-hydroxy-5-methyl-6,7-dihydro-5H-cyclopenta[d]pyrimidin-4-yl)piperazin-1-yl)ethanone] | < 1000 |
| C[C@@H]1C[C@@H](O)c2ncnc(N3CCN(C(=O)[C@@H](c4ccc(Cl)cc4)[C@@H]4CCC5(CCCC5)N4)CC3)c21 [Example 85, (S)-2-(4-chlorophenyl)-1-(4-((5R,7R)-7-hydroxy-5-methyl-6,7-dihydro-5H-cyclopenta[d]pyrimidin-4-yl)piperain-1-yl)-2-((S)-1-azaspiro[4.4]nonan-2-yl)ethanone] | < 1000 |
| CCC1(CC)CC[C@@H]([C@@H](C(=O)N2CCN(c3ncnc4c3[C@H](C)C[C@H]4O)CC2)c2ccc(Cl)cc2)N1 [Example 86, (S)-2-(4-chlorophenyl)-2-((S)-5,5-diethylpyrrolidin-2-yl)-1-(4-((5R,7R)-7-hydroxy-5-methyl-6,7-dihydro-5H-cyclopenta[d]pyrimidin-4-yl)piperazin-1-yl)ethanone] | < 1000 |
| C[C@@H]1C[C@@H](O)c2ncnc(N3CCN(C(=O)[C@@H](c4ccc(S(C)(=O)=O)cc4)[C@@H]4CCC(C)(C)N4)CC3)c21 [Example 87] | < 1000 |
| C[C@@H]1C[C@@H](O)c2ncnc(N3CCN(C(=O)[C@@H](c4ccc(C(N)=O)cc4)[C@@H]4CCCN4)CC3)c21 [Example 88, 4-((S)-2-(4-((5R,7R)-7-hydroxy-5-methyl-6,7-dihydro-5H-cyclopenta[d]pyrimidin-4-yl)piperazin-1-yl)-2-oxo-1-((S)-pyrrolidin-2-yl)ethyl)benzamide] | < 1000 |
| C[C@@H]1C[C@@H](O)c2ncnc(N3CCN(C(=O)[C@@H](c4ccc(C(N)=O)cc4)[C@@H]4CCCN4C)CC3)c21 [Example 89, 4-((S)-2-(4-((5R,7R)-7-hydroxy-5-methyl-6,7-dihydro-5H-cyclopenta[d]pyrimidin-4-yl)piperazin-1-yl)-1-((S)-1-methylpyrrolidin-2-yl)-2-oxoethyl)benzamide] | < 1000 |
